# Test results: ChEMBL document CHEMBL5338714, “Design, synthesis and biological evaluation of biphenyl-benzamides as potent FtsZ inhibitors” (Eur J Med Chem, 2022)
# Assays:
# Pseudomonas aeruginosa = test: Antibacterial activity against Pseudomonas aeruginosa 15690 assessed as bacterial growth inhibition incubated for 18 hrs by CLSI based broth microdilution method; format: functional
# Method in brief: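 Broth microdilution to CLSI guidelines. Log-phase bacteria grown in Mueller Hinton broth, diluted, then exposed to 2-fold serial dilutions of compound (128 to 0.25 µg/mL or 2 to 0.004 µg/mL). Incubated aerobically 18 h at 37 °C. Growth read as OD600. MIC = lowest concentration giving ≥90% growth inhibition. Three independent assays.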
# Escherichia coli = test: Antibacterial activity against Escherichia coli 25922 assessed as bacterial growth inhibition incubated for 18 hrs by CLSI based broth microdilution method; format: functional
# Method in brief: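 CLSI broth microdilution. Log-phase bacteria in Mueller Hinton broth added to 2-fold serial dilutions spanning 128 to 0.25 or 2 to 0.004 µg/mL. Incubated aerobically for 18 h at 37 °C, then OD600 read. MIC is the lowest concentration giving ≥90% growth inhibition; three independent assays.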
compound,measurement,setting,value
CN[C@H](CC(C)C)C(=O)N[C@H]1C(=O)N[C@@H](CC(N)=O)C(=O)N[C@H]2C(=O)N[C@H]3C(=O)N[C@H](C(=O)N[C@H](C(=O)O)c4cc(O)cc(O)c4-c4cc3ccc4O)[C@H](O)c3ccc(c(Cl)c3)Oc3cc2cc(c3O[C@@H]2O[C@H](CO)[C@@H](O)[C@H](O)[C@H]2O[C@H]2C[C@](C)(N)[C@H](O)[C@H](C)O2)Oc2ccc(cc2Cl)[C@H]1O [VANCOMYCIN],MIC,Pseudomonas aeruginosa,> 128 µg/mL
same,MIC,Escherichia coli,> 128 µg/mL
